## Primary screen of a compound library

Each number is a percent effect as filed.
The record does not define 0% and 100%; most values in the screen are far below 50% and negative numbers occur (in some assays of this library far below -100).
Compounds were drawn at random from those tested, without regard to their results.
Two or more numbers in one place are separate tests of the same structure; such repeats can differ widely.

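Viability assay of Plasmodium falciparum sporozoites; the read-out is not stated. The concentration is filed as 10 mM, unlikely as a test dose, so the dose is not known. Higher reads as lower viability (inferred: compounds with an IC50 in retests scored well above the rest). Strong results were mostly tested again. Size under these conditions: about 34,000 compounds, about 280 of them at 50% or above in at least one test.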

{"smiles": "Cc1cc(C)n(CC2CN(c3ncnc4[nH]ccc34)CCO2)n1", "stereo": "stereo not given", "effect": -3.163}
{"smiles": "O=C(O)C(F)(F)F.[H][C@]12CCCN(Cc3cccs3)[C@@]1([H])CN(C(=O)c1ccco1)C2", "effect": 3.468}
{"smiles": "OCc1ccccc1CNCC1CNc2ccnn2C1", "stereo": "stereo not given", "effect": 8.346}
{"smiles": "CN(Cc1cccs1)C(=O)Cn1cc(NC(=O)C(C)(C)C)cn1", "effect": -1.695}
{"smiles": "O=C(O)C(F)(F)F.O=S(=O)(C1CC1)N1CCOCC2(CCN(c3ccccn3)C2)C1", "stereo": "stereo not given", "effect": -0.4386}
{"smiles": "Cc1cccc(C(=O)N2CCn3c(CN4CCN(C)CC4)cnc3C2)n1", "effect": 8.249}
{"smiles": "O=S(=O)(c1ccc(F)cc1)N1CCCCC1c1cc[nH]n1", "stereo": "stereo not given", "effect": 17.74}
{"smiles": "O=S1(=O)NC(C2CCN(Cc3ccncc3)CC2)Nc2ccccc21", "stereo": "stereo not given", "effect": 7.758}
{"smiles": "CC(C)n1cnc2c1C(C(=O)N(C)C)N(Cc1ccccc1)CC2.O=C(O)C(F)(F)F", "stereo": "stereo not given", "effect": "-8.327 and -6.999"}
{"smiles": "N#Cc1cccc(C(=O)N2CCc3ncc(Cn4cccn4)n3CC2)c1", "effect": 1.407}
{"smiles": "O=C(O)C(F)(F)F.O=C(O)C(F)(F)F.c1cncc(CN2CCc3c(nnn3CC3CC3)C2COCC2CC2)c1", "stereo": "stereo not given", "effect": -8.759}
{"smiles": "Cc1nonc1CNC(=O)C(C)Oc1cccc(F)c1", "stereo": "stereo not given", "effect": 0.9625}
{"smiles": "Cc1cc(N2CCN(Cc3cn(C)nc3C)CC2)cc(C2CCCN2)n1.Cl", "stereo": "stereo not given", "effect": -10.02}
{"smiles": "Cc1n[nH]c(C)c1CCC(=O)N1CCc2c(nc[nH]c2=O)C1", "effect": -2.328}
{"smiles": "CCOC1COC2(CCN(S(=O)(=O)c3ccc(F)cc3)CC2)C1", "stereo": "stereo not given", "effect": 16.1}
{"smiles": "CCCc1noc2ncc(C(=O)N3CCCC3c3cnn(C)c3)cc12", "stereo": "stereo not given", "effect": 14.82}
{"smiles": "COc1c(CNCc2ccnc(N3CCCC3)c2)c(C)nn1C", "effect": "3.957 and -13.69 and -21.96"}
{"smiles": "COc1ccc(COCC(=O)N2CCN(CC(C)(C)O)CC2)cc1", "effect": "7.514 and -16.19 and -8.725"}
{"smiles": "NCC1(c2cccc(F)c2)CCOCC1", "effect": 10.3}
{"smiles": "CC(=O)N[C@H]1C[C@@H](c2nc(-c3ccc4c(c3)OCO4)no2)N(C)C1", "effect": "4.182 and 1.153"}
{"smiles": "[H][C@@]12OCCN(C(=O)c3nn(C)c4ccccc34)[C@@]1([H])CC[C@H]2OCC", "effect": 1.213}
{"smiles": "Cc1nc(C(=O)N2CCCC2c2cncc(CN3CCCC3)n2)co1", "stereo": "stereo not given", "effect": 7.046}
{"smiles": "Cc1noc(CCCC(=O)NC(C)c2cccnc2)n1", "stereo": "stereo not given", "effect": 6.925}
{"smiles": "CC(C)(C)n1ncc2c1CCCC2NCc1ccc2c(c1)CCO2", "stereo": "stereo not given", "effect": "65.53 and 54.34"}
{"smiles": "Cc1cc(C(F)(F)F)n2nc(C3CCN(S(=O)(=O)N(C)C)CC3)cc2n1", "effect": "-4.714 and -13.92 and 45.11"}
{"smiles": "Cc1csc(N2CCCN(C(=O)C3(C#N)CCCC3)CC2)n1", "effect": 11.22}
{"smiles": "[H][C@@]12C[C@H](C(=O)NCc3ccco3)CN(C(=O)c3ccnnc3)[C@]1([H])CCO2", "effect": 5.396}
{"smiles": "O=C(O)C(F)(F)F.[H][C@@]12CCN(CC(=O)NC)C[C@]1([H])CN(C(=O)c1cccc(C)c1)C2", "effect": 3.07}
{"smiles": "Cl.O=S(=O)(N1CCCCC1)N1CCc2nc(C3CCNCC3)ncc2C1", "effect": 2.962}
{"smiles": "CC(C)CN1CCN(C(=O)CCn2cccn2)CC1", "effect": 3.307}
{"smiles": "CNc1cncc(C2CCCN2S(=O)(=O)c2ccc(F)cc2)n1", "stereo": "stereo not given", "effect": 2.591}
{"smiles": "c1ccc(-c2cnc(CNCC3CCCN3c3cccnn3)o2)cc1", "stereo": "stereo not given", "effect": -3.006}
{"smiles": "Cc1cc(C)cc(-c2ccc(CC3(C(=O)O)CCOCC3)cc2)c1", "effect": -4.147}
{"smiles": "Cc1nc(Nc2cnccn2)cc(C2CCCN(C(C)C)C2)n1", "stereo": "stereo not given", "effect": 0.8223}
{"smiles": "COc1ccc(C(=O)N2CCN(CCO)CC2)c(F)c1", "effect": -3.512}
{"smiles": "O=C(NC1CCCc2nc(N3CCOCC3)ncc21)C1CCCCC1", "stereo": "stereo not given", "effect": 2.748}
{"smiles": "Cc1noc(CCCc2nc(C3CCOC3)no2)n1", "stereo": "stereo not given", "effect": -3.402}
{"smiles": "COc1cc(N2CCN(CC3CC3)c3nc(C)ccc3C2)ncn1", "effect": 6.414}
{"smiles": "O=C1CN(c2ccc(C(=O)N3CCc4ccccc43)cn2)CCN1", "effect": -12.37}
{"smiles": "Cc1ccc(CN(CCCn2ccnc2)Cc2cccs2)s1.O=C(O)CC(O)(CC(=O)O)C(=O)O", "effect": 11.45}
{"smiles": "CC(C)NC(=O)N1CCCC(c2nnc(CN3CCOCC3)n2C)C1", "stereo": "stereo not given", "effect": -4.961}
{"smiles": "CCn1cc(NC(=O)NCC(C)N(C)C)cn1", "stereo": "stereo not given", "effect": 3.648}
{"smiles": "Cc1cnn(CC2CN(Cc3nccn3CC(F)(F)F)CCO2)c1", "stereo": "stereo not given", "effect": -1.211}
{"smiles": "Cc1cccc(NC(=O)[C@@H]2CCCN2CC(=O)Nc2ccccc2)n1", "effect": -7.108}
{"smiles": "Cc1cccc(-c2ccc(C(=O)NCC3CCOC3)c(=O)[nH]2)c1", "stereo": "stereo not given", "effect": -7.68}
{"smiles": "c1cc(-c2cn3nccc3nc2C2CCCCC2)nc(N2CCCC2)n1", "effect": 2.964}
{"smiles": "Cn1cc(C2CC(=O)NC23CCN(CC2CC2)CC3)cn1.O=C(O)C(F)(F)F", "stereo": "stereo not given", "effect": -13.96}
{"smiles": "Cc1nc(CCC(N)=O)cc(C2CCNCC2)n1", "effect": 14.79}
{"smiles": "COc1ccccc1C1Cn2c(C)cnc2CN1Cc1ccc(C)nc1", "stereo": "stereo not given", "effect": 13.11}
{"smiles": "COc1cc(C)nc(N2CCN(C(=O)COCC3CC3)CC2)n1", "effect": 4.962}
{"smiles": "Cn1cc(-c2ncnc3c2CCN(C(=O)c2cscn2)CC3)cn1", "effect": 13.34}
{"smiles": "COCCNC(=O)Cn1c(-c2ccco2)cc2cccnc21", "effect": 1.332}
{"smiles": "CN1CC(=O)N(c2cccc(F)c2)CC12CCN(Cc1cccnc1)C2.O=C(O)C(F)(F)F.O=C(O)C(F)(F)F.O=C(O)C(F)(F)F", "stereo": "stereo not given", "effect": -11.28}
{"smiles": "O=C(O)C(F)(F)F.c1cc(CN2CCCn3cnc(COCC4CC4)c3C2)co1", "effect": 2.344}
{"smiles": "Cc1nc2ccccc2c(=O)n1CCC(=O)N1CCSCC1", "effect": 2.143}
{"smiles": "CC(=O)N1CCC1c1cc(N2CCSCC2)nc(C)n1", "stereo": "stereo not given", "effect": 6.415}
{"smiles": "[H][C@]12CC[C@]([H])(CN(C3CSCCSC3)C1)N(Cc1cscn1)C2=O", "effect": 9.448}
{"smiles": "O=C(O)c1cc(NS(=O)(=O)c2ccc(Br)s2)c(F)cc1F", "effect": -20.46}
{"smiles": "Cn1cccc1C(=O)N1CC2(CCN(C(=O)c3cccnc3)C2)C1.O=C(O)C(F)(F)F", "effect": 18.56}
{"smiles": "CC(NC(=O)C1=NN(C)C(=O)CC1)c1ccc(F)cc1F", "stereo": "stereo not given", "effect": -10.27}
{"smiles": "O=C(O)C(F)(F)F.[H][C@@]12CCN(Cc3nccs3)[C@]1([H])CC[C@H](C(=O)N1CCC(C)CC1)O2", "effect": 7.04}
{"smiles": "Cl.Cl.c1ccc(COC[C@@H]2CCC[C@@]23CNCCO3)nc1", "effect": 2.674}
{"smiles": "COc1ccccc1-n1cc(C(=O)NCCCn2ccnn2)cn1", "effect": -13.1}
{"smiles": "CC(Cn1cccn1)NC(=O)NCc1ccc(C(N)=O)cc1", "stereo": "stereo not given", "effect": 1.463}
{"smiles": "CC(=O)N1CCN(Cc2ccc(F)cc2)CC2(CC(=O)N(C)C2)C1.O=C(O)C(F)(F)F", "stereo": "stereo not given", "effect": 11.37}

The last 4 entries again:

{"smiles": "Cl.Cl.c1ccc(COC[C@@H]2CCC[C@@]23CNCCO3)nc1", "effect": 2.674}
{"smiles": "COc1ccccc1-n1cc(C(=O)NCCCn2ccnn2)cn1", "effect": -13.1}
{"smiles": "CC(Cn1cccn1)NC(=O)NCc1ccc(C(N)=O)cc1", "stereo": "stereo not given", "effect": 1.463}
{"smiles": "CC(=O)N1CCN(Cc2ccc(F)cc2)CC2(CC(=O)N(C)C2)C1.O=C(O)C(F)(F)F", "stereo": "stereo not given", "effect": 11.37}

Data taken from ChEMBL document CHEMBL3988442, “University of Dundee, Small-Polar-MMV Screening Library” (2021).